Laboratory results: PubChem BioAssay AID1508588 (Peter MacCallum Cancer Centre, 2020)

- Purpose: 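Knock-downs boosting vemurafenib effects on melanoma cell growth or lactate release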 (primary screen)
- Cells: human WM266.4 melanoma cells (BRAF V600 mutant)
- Knock-down reagent: siRNA pool against human genes, 40 nM
- Timing: 96 h from transfection to read-out
- Conditions: vemurafenib 300 nM (about IC25), added 48 h after transfection, for 48 h; comparison arm got DMSO vehicle only
- Detection: 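Cell gain (DAPI nuclei at end minus before drug, mean of two replicates) and medium lactate by absorbance per cell, both as ratio to non-targeting siRNA, also grouped into fold-change classes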
- Direction: cell gain with vemurafenib: higher = more cell gain than with non-targeting siRNA; lactate per cell with vemurafenib: higher = more lactate made per cell
- Call rule: 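Enhancement is called by pairing each knock-down's vehicle-arm and drug-arm fold-change classes for viability or glycolysis; which class combinations qualify is not given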
- Meaning of the calls: active = enhances vemurafenib effect; inactive = no enhancement seen
In all, the deposit lists about 18,000 reagents; this is a random part of them. Of all reagents, 790 (4.4%) got an active call. 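Calls rest on a combination of fold-change classes in drug and vehicle arms, not all shown here.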 A reagent listed more than once was tested more than once; the source does not tell the runs apart. No sequences are given here.

gene knocked down | cell gain with vemurafenib | lactate per cell with vemurafenib | Outcome
RAD23B (GeneID 5887) | 0.51 | 1.16 | inactive
VEGFC (GeneID 7424) | -0.05 | 3.04 | inactive
CCDC124 (GeneID 115098) | 0.69 | 0.69 | inactive
ATG9B (GeneID 285973) | 0.98 | 1.27 | inactive
MCM3 (GeneID 4172) | 0.04 | 1 | inactive
EPS8L3 (GeneID 79574) | 0.22 | 1.58 | inactive
ZNF211 (GeneID 10520) | 0.51 | 1.02 | inactive
TMEM242 (GeneID 729515) | 0.87 | 0.7 | inactive
PPM1D (GeneID 8493) | 0.47 | 1.25 | inactive
HDHD2 (GeneID 84064) | 0.17 | 1.07 | active
TBL1X (GeneID 6907) | 0.23 | 0.85 | inactive
SPINK5 (GeneID 11005) | 0.28 | 1.95 | inactive
LMAN1 (GeneID 3998) | 0.56 | 1.5 | inactive
HTR3E (GeneID 285242) | 0.48 | 1.05 | inactive
HTR3E (GeneID 285242) | 0.61 | 1.25 | inactive
HTR3E (GeneID 285242) | 0.74 | 1.08 | inactive
MRTO4 (GeneID 51154) | 0.69 | 1.02 | inactive
RNF216 (GeneID 54476) | 0.86 | 0.8 | inactive
MED29 (GeneID 55588) | 0.53 | 0.7 | inactive
ZNF177 (GeneID 7730) | 0.98 | 0.47 | active
RABEP2 (GeneID 79874) | 0.87 | 1.77 | inactive
HOXA10 (GeneID 3206) | 0.69 | 0.72 | inactive
DMKN (GeneID 93099) | 0.54 | 0.8 | inactive
TTC4 (GeneID 7268) | 0.84 | 0.73 | inactive
TKT (GeneID 7086) | 1.03 | 1.07 | inactive
LAS1L (GeneID 81887) | 0.96 | 0.52 | inactive
HOXB7 (GeneID 3217) | 0.7 | 1.14 | inactive
CCDC102B (GeneID 79839) | 0.43 | 1.66 | inactive
MUSTN1 (GeneID 389125) | 0.17 | 1.48 | inactive
RTN1 (GeneID 6252) | 0.61 | 1.08 | inactive
TRMT44 (GeneID 152992) | 0.37 | 1.18 | inactive

7 entries from above, reduced to “cell gain with vemurafenib”.
RNF216 (GeneID 54476)	0.86
MED29 (GeneID 55588)	0.53
ZNF177 (GeneID 7730)	0.98
RABEP2 (GeneID 79874)	0.87
HOXA10 (GeneID 3206)	0.69
DMKN (GeneID 93099)	0.54
TTC4 (GeneID 7268)	0.84

Continued.
gene knocked down | cell gain with vemurafenib | lactate per cell with vemurafenib | Outcome
ENPP5 (GeneID 59084) | 0.3 | 0.72 | inactive
AFP (GeneID 174) | 0.15 | 0.76 | inactive
GTF2IRD1 (GeneID 9569) | 1.01 | 0.8 | inactive
GARIN1A (GeneID 346653) | 0.13 | 0.68 | active
DAZAP1 (GeneID 26528) | 1.16 | 0.42 | inactive
MARCHF3 (GeneID 115123) | 0.62 | 0.92 | inactive
KIF27 (GeneID 55582) | 0.97 | 1.23 | inactive
PSMD1 (GeneID 5707) | -0.03 | 1.83 | inactive
SDHA (GeneID 6389) | 0.72 | 0.59 | inactive
HSF2BP (GeneID 11077) | 0.25 | 1.21 | inactive
ZNF587 (GeneID 84914) | 0.77 | 0.87 | inactive
POLA2 (GeneID 23649) | 0.01 | 2.37 | inactive
THAP8 (GeneID 199745) | 0.23 | 1.44 | inactive
C22orf15 (GeneID 150248) | 0.54 | 0.86 | inactive
ZFP82 (GeneID 284406) | 0.19 | 2.16 | inactive
CCDC22 (GeneID 28952) | 0.27 | 1.1 | inactive
SUOX (GeneID 6821) | 0.35 | 1.12 | inactive
CALB2 (GeneID 794) | 0.34 | 0.57 | inactive
ARMCX2 (GeneID 9823) | 1.09 | 0.61 | inactive
GEN1 (GeneID 348654) | 1.01 | 0.46 | inactive
SCNM1 (GeneID 79005) | 0.14 | 3.83 | inactive
SEMA3A (GeneID 10371) | 0.47 | 0.52 | inactive
ABTB1 (GeneID 80325) | 0.87 | 0.36 | inactive
MAP7 (GeneID 9053) | 0.47 | 1.36 | inactive
LY96 (GeneID 23643) | 0.66 | 0.76 | inactive
ADI1 (GeneID 55256) | 0.65 | 1.9 | inactive
